{
  "source": "patent US20240009139A1",
  "about": "“STABLE WOUND CARE FORMULATION” (JENARRON THERAPEUTICS LIMITED, priority 2017, published 2024)",
  "type": "physicochemical",
  "protocol": "Tests carried out: Weight change *, pH *, Lidocaine Assay #, Rheology #, Hardness and compressibility *, In vitro release study †\nThe 28-99 PVA hydrogels (batch numbers 16 and 17 in Table 5 above) were evaluated for various parameters up to 6 months storage. The same parameters for batch numbers 18 and 19 (4-88 PVA) up to the 3 month time point are also discussed.",
  "note": "Where a name gives a salt, the structure may show the parent alone.",
  "data": [
    {"smiles": "CCN(CC)CC(=O)Nc1c(C)cccc1C", "note": "[Lidocaine HCl, lidocaine hydrochloride]", "values": [
      {"measurement": "stability of lidocaine HCl in PVA-THB hydrogels", "value": "no appreciable degradation"}
    ]}
  ]
}
